Primary screen of a compound library

Source: ChEMBL document CHEMBL3988442, “University of Dundee, Small-Polar-MMV Screening Library” (2021).

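Whole-cell growth test on Mycobacterium tuberculosis, read after 3 days in glucose-containing 7H9 medium; the read-out is not stated. Tested at 50 µM. Direction is inferred from retests: higher values go with more growth inhibition. Of about 69,000 compounds tested this way, about 760 (1.1%) reached 50% or more in at least one test.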

The filed quantity is “Percent Effect” (%).
The record does not define 0% and 100%; most values in the screen are far below 50% and negative numbers occur (in some assays of this library far below -100).
Compounds were drawn at random from those tested, without regard to their results.
Two or more numbers in one place are separate tests of the same structure; such repeats can differ widely.

Result for COc1cccc(-c2n[nH]cc2CNCC2CCS(=O)(=O)C2)c1 (stereo unspecified) was -9.602% & 12.16%.
Result for Cc1n[nH]c(C)c1C1COCCN1C(=O)c1cccc(F)c1F (stereo unspecified) was -6.708%.
Result for O=c1[nH]c2c(c(=O)n1C1CCCCC1)CCC2Nc1ccccc1 (stereo unspecified) was -3.323%.
Result for COc1c(C)cnc(CN2CCCCC2Cn2nc(C)nc2C)c1C (stereo unspecified) was 1.87%.
Result for Cc1csc(CCCNc2ccc(S(N)(=O)=O)cc2C#N)n1 was 9.102%.
Result for Cc1n[nH]c(C)c1-c1cnc(CC2CCN(C)C2)cn1 (stereo unspecified) was 13.59%.
Result for CC(C)(C(N)=O)S(=O)(=O)c1ccc(Br)cc1 was -19.34%.
Result for CCOc1ccc(OCC)c(NCc2cc(C)on2)c1 was 14.82%.
Result for CCOCCc1nc(CCc2ccccc2)n[nH]1 was 2.468% & -4.986%.
Result for Cc1ccc(CN(Cc2cc(=O)n3cccc(C)c3n2)C(C)C)o1 was -0.7629%.
Result for CC(C)n1cc(S(=O)(=O)N2CCCCCC2)cn1 was 2.306%.
Result for CC(C)(NCCOc1ccc(CC#N)cc1)c1nccs1 was 13.44%.
Result for CC(=O)N1CCN(CC(=O)N2CCN(c3cccc(C)c3)CC2)CC1 was -9.18%.
Result for CCn1c(C)nnc1CN(C)C1CCN(CCCSC)C1 (stereo unspecified) was -5.405%.
Result for [H][C@@]12COC[C@]1(COCC1CC1)CN(C(=O)c1ccc(F)cc1C)C2 was -31.09% & 0.4587%.
Result for Cc1nc(CCCNC(=O)c2cc(F)ccc2O)n[nH]1 was 20.36%.
Result for COC1CCN(C(=O)CCn2cccn2)CC1 was -4.081%.
Result for CCCN1CC2(CCN(c3ccc(C(C)=O)cn3)CC2)CC1C(=O)O (stereo unspecified) was -17.14%.
Result for Clc1cccc(C(CNCc2cccnc2)N2CCOCC2)c1 (stereo unspecified) was -36.85%.
Result for CC(C)(C)CC(=O)NC[C@H]1OC[C@@H](NC2CCC(F)(F)CC2)[C@@H]1O was -2.532% & -9.98%.
Result for CSCCCN1C[C@H](NC(=O)c2cnn(C)c2)[C@@H](C2CC2)C1 was 0.1679%.
Result for O=C(CCCn1cncn1)N1CCC2(CCCNC2=O)C1 (stereo unspecified) was 4.581%.
Result for Cn1ccnc1-c1nc2cc(S(=O)(=O)N3CCCC3)ccc2n1C was 4.928%.
Result for CC(C)N1C[C@H](O)C[C@H]1c1nc(-c2ccc(OC(F)(F)F)cc2)no1 was -9.184% & 3.826%.
Result for CC(C)=CCN1CCOC(Cn2nc(C)cc2C)C1 (stereo unspecified) was -43.83%.
Result for Cc1noc(C)c1CN(C)C(=O)NC(C)Cc1ccco1 (stereo unspecified) was -11.04%.
Result for O=C(CCc1cc2n(n1)CCCN(C(=O)c1cccnc1)C2)NC1CC1 was -5.305% & -4.876%.
Result for CCNC(=O)NCc1cccc(N2CC=CC2)c1 was -16.85%.
Result for CC(C)N(C)C(=O)CN1C(=O)OC[C@@H]1c1ccccc1 was 6.678% & -2.224%.
Result for CC(C)(C)n1ncc2c1NC(=O)CC2c1ccc(OCC(N)=O)cc1 (stereo unspecified) was 1.009%.
Result for CN(C)CC1CSCCCN1S(=O)(=O)c1ccc(C(F)(F)F)cc1 (stereo unspecified) was 6.956% & 5.432%.
Result for CCN1CCCC(CN(C)c2nccc(-c3ccc(C)nc3C)n2)C1 (stereo unspecified) was 21.81%.
Result for O=C1COc2ccc(C(=O)N3CCCC(n4ccnc4)C3)cc2N1 (stereo unspecified) was 16.82%.
Result for CC(NC(=O)N1CCN(c2cccs2)CC1)c1ccncc1 (stereo unspecified) was 5.165% & 29.33%.
Result for O=C(O)C(F)(F)F.O=C(c1ccccc1)N1CCC[C@]2(C[C@@H](OCc3ccccn3)CO2)C1 was -4.764%.
Result for CC(Cc1cccnc1)Nc1ncnc2cccc(F)c12 (stereo unspecified) was 5.309%.
Result for O=C(O)C(F)(F)F.O=C(O)C(F)(F)F.[H][C@@]12CN(CCOC)C[C@]1([H])[C@@H](OC)CCN2Cc1ccco1 was -16.29%.
Result for O=C(NC1CCCCC1)c1cc(Br)cnc1N1CCCCC1 was -20.94%.
Result for CC(C)(C)C(=O)N1CCCC1c1nccnc1Cl (stereo unspecified) was -0.5584%.
Result for CN(Cc1cccnc1)CC1(O)CCCN(CC(C)(C)C)C1=O (stereo unspecified) was 8.045%.

Some entries from above, unchanged:

{"compound": "COc1cccc(-c2n[nH]cc2CNCC2CCS(=O)(=O)C2)c1", "stereo": "stereo unspecified", "percent effect": "-9.602 & 12.16"}
{"compound": "CCNC(=O)NCc1cccc(N2CC=CC2)c1", "percent effect": -16.85}
{"compound": "O=C1COc2ccc(C(=O)N3CCCC(n4ccnc4)C3)cc2N1", "stereo": "stereo unspecified", "percent effect": 16.82}
{"compound": "O=C(CCc1cc2n(n1)CCCN(C(=O)c1cccnc1)C2)NC1CC1", "percent effect": "-5.305 & -4.876"}